Results are given in words; binding and its absence hold for the method and conditions named. Some results given as binding are weak or reduced against the parent protein; the word gives no strength.
Key:
[1] = target: human TAP1 NBD with N676G, S677N, Q680R, E682Q and Q683R substitutions, cysteines replaced by serines, and a C-terminal His tag (construct 24) (human) (UniProt Q03518); test: size exclusion chromatography (FIG. 9 legend); homodimerization
[2] = target: human TAP1 NBD with N676G, S677N, Q680R, E682Q and Q683R substitutions, cysteines replaced by serines, and a C-terminal His tag (construct 24) (human) (UniProt Q03518); test: dynamic light scattering, 1 mM ATP against 1 mM ADP; homodimerization
[3] = target: human TAP1 NBD with N676G, S677N, Q680R, E682Q and Q683R substitutions, cysteines replaced by serines, and a C-terminal His tag (construct 24) (human) (UniProt Q03518); test: size exclusion chromatography, 1 mM ATP against 1 mM ADP; homodimerization
[4] = target: human TAP1 NBD with N676G, S677N, Q680R, E682Q and Q683R substitutions, cysteines replaced by serines, and a C-terminal His tag (construct 24) (human) (UniProt Q03518); test: mass photometry (FIG. 10 legend); homodimerization
[5] = target: human TAP1 NBD with N676G, S677N, Q680R, E682Q and Q683R substitutions, cysteines replaced by serines, and a C-terminal His tag (construct 24) (human) (UniProt Q03518); test: mass photometry and DLS; homodimerization in ATP

Measured: binding

human TAP1 NBD with N676G, S677N, Q680R, E682Q and Q683R substitutions, cysteines replaced by serines, and a C-terminal His tag (construct 24) (from UniProt Q03518 492-748)
binds: all assays above
